Data as given in publication PMC9813392.
These are yes or no findings as the source states them, for the method shown. A result given as binding can be weak or reduced; the word gives no strength. Sequences can lack the tags named with a protein.

Biological target: Noc3p with the C-terminal NOC domain deleted, yeast two-hybrid fusion (S. cerevisiae) (UniProt Q07896)
Assay: two-hybrid; Matchmaker system III (Clontech); BD- and AD-fusion proteins; growth on SCM-Trp-Leu-His plates; empty BD or AD vector as negative controls

Row | binding | Binder
1 | binds | Orc2p, yeast two-hybrid fusion (AD-Orc2p) (protein, UniProt P32833 1-620) MLNGEDFVEHNDILSSPAKSRNVTPKRVDPHGERQLRRIHSSKKNLLERISLVGNERKNTSPDPALKPKTPSKAPRKRGRPRKIQEELTDRIKKDEKDTISSKKKRKLDKDTSGNVNEESKTSNNKQVMEKTGIKEKREREKIQVATTTYEDNVTPQTDDNFVSNSPEPPEPATPSKKSLTTNHDFTSPLKQIIMNNLKEYKDSTSPGKLTLSRNFTPTPVPKNKKLYQTSETKSASSFLDTFEGYFDQRKIVRTNAKSRHTMSMAPDVTREEFSLVSNFFNENFQKRPRQKLFEIQKKMFPQYWFELTQGFSLLFYGVGSKRNFLEEFAIDYLSPKIAYSQLAYENELQQNKPVNSIPCLILNGYNPSCNYRDVFKEITDLLVPAELTRSETKYWGNHVILQIQKMIDFYKNQPLDIKLILVVHNLDGPSIRKNTFQTMLSFLSVIRQIAIVASTDHIYAPLLWDNMKAQNYNFVFHDISNFEPSTVESTFQDVMKMGKSDTSSGAEGAKYVLQSLTVNSKKMYKLLIETQMQNMGNLSANTGPKRGTQRTGVELKLFNHLCAADFIASNEIALRSMLREFIEHKMANITKNNSGMEIIWVPYTYAELEKLLKTVLNTL
2 | binds | Noc3p, full length, yeast two-hybrid fusion (BD-NOC3 and AD-Noc3p) (protein, UniProt Q07896 1-663) MAKRNRSQFRIQERTAKKRKHEDSLLEGNVFQNAPEDMDENTIYSAKGSSWDEEEQDYEMVPRKNRSDTSNLVEGLPIKVNGKVERKLHKAQEKPKDDDEEDEDSNDSSEDDEGPNEEQEAEAKEDEPDTEEKILQLKEDIADLVTKVMEEPEENTAALGRLCKMVESKNPNTCKFSMLALVPVFKSIIPGYRIRPLTETEKKEKVSKEVSKLRNFEQALVYNYKNYVGRLQSLSKTPSNAAPIQVSLGILATQAAKELISTASHFNFRTDIFTLLLRRICKPRISTDPTSIQIIQTFETLLNEDEEGSISFEILRIFNKILKTRNFNIEESVLNMLLSLDVLHDYDPNTKLKGNVSAPKLKKKDRVHLSKKQRKARKEMQQIEEEMRNAEQAVSAEERERNQSEILKIVFTIYLNILKNNAKTLIGSVLEGLTKFGNMANFDLLGDFLEVMKELISDTEFDNLSSAEVRKALLCIVSAFSLISNTQYMKVNVDLSKFVDGLYALLPYICLDADIELSYRSLRLADPLNNEIIKPSVNVSTKAELLLKALDHVFFRSKSGTKERATAFTKRLYMCISHTPEKTSIAILKFIDKLMNRYPEISGLYSSEDRIGNGHFIMEADNPSRSNPEAATLWDNALLEKHYCPVVTKGLRSLSSRSKECSK
